{"source": "PubChem BioAssay AID652259 | Drosophila RNAi Screening Center | 2013", "purpose": "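Genome-wide hunt for genes that control Wingless pathway activity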 (primary screen)", "cell system": "Drosophila clone 8 imaginal disc epithelial cells", "reagent": "long dsRNA against Drosophila genes", "conditions": "pathway stimulated by co-transfected Wingless expression plasmid", "measurement": "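Dual luciferase reads per well after Wingless plasmid stimulation: reporter firefly light and Renilla control light; activity is firefly divided by Renilla, a ratio not deposited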", "direction": "firefly reporter light: higher = more Wg reporter light, before normalisation; Renilla control light: higher = more transfected or surviving cells", "active means": "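Strong candidates differ from their plate mean by at least two out of four per-plate statistical tests; weak candidates meet just one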", "calls": "active = candidate regulator (raises or lowers reporter); inactive = not a candidate", "note": "The screen tested about 22,000 reagents; this is a random part of those with a known target gene and a result. Over the whole deposit, 233 (1.1%) are marked active. 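Light values are raw, unnormalised plate reads; the ratio scores behind the reporter calls were not deposited.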 A number with no mark means an inactive call. A plus sign joins genes that one reagent is predicted to hit. Reagent sequences are not shown. The record does not give: the amount of reagent, the time to read-out, the dose of the treatment."}
{"target gene":"MAGE","DRSC id":"DRSC12504","firefly reporter light, replicate 1":13735,"Renilla control light, replicate 1":3207}
{"target gene":"Frq2","DRSC id":"DRSC20245","firefly reporter light, replicate 1":24085,"Renilla control light, replicate 1":9173}
{"target gene":"CG31371","DRSC id":"DRSC15079","firefly reporter light, replicate 1":6997,"Renilla control light, replicate 1":2577}
{"target gene":"dve","DRSC id":"DRSC04680","firefly reporter light, replicate 1":2692,"firefly reporter light, replicate 2":9448,"Renilla control light, replicate 1":726,"Renilla control light, replicate 2":3689}
{"target gene":"Klp64D","DRSC id":"DRSC11204","firefly reporter light, replicate 1":2064,"firefly reporter light, replicate 2":9747,"Renilla control light, replicate 1":1488,"Renilla control light, replicate 2":4372}
{"target gene":"CG17996 + Tsen2","DRSC id":"DRSC02650","firefly reporter light, replicate 1":2227,"firefly reporter light, replicate 2":3634,"Renilla control light, replicate 1":1126,"Renilla control light, replicate 2":2300}
{"target gene":"CG4691","DRSC id":"DRSC01950","firefly reporter light, replicate 1":4388,"Renilla control light, replicate 1":1954}
{"target gene":"CG14441","DRSC id":"DRSC17934","firefly reporter light, replicate 1":22224,"Renilla control light, replicate 1":5158}
{"target gene":"SNRPG","DRSC id":"DRSC20207","firefly reporter light, replicate 1":21141,"Renilla control light, replicate 1":7344}
{"target gene":"tsh","DRSC id":"DRSC03740","firefly reporter light, replicate 1":2563,"firefly reporter light, replicate 2":4449,"Renilla control light, replicate 1":752,"Renilla control light, replicate 2":1936}
{"target gene":"Ptp99A","DRSC id":"DRSC13933","firefly reporter light, replicate 1":5680,"Renilla control light, replicate 1":2054}
{"target gene":"Ptp99A","DRSC id":"DRSC13939","firefly reporter light, replicate 1":4592,"Renilla control light, replicate 1":2197}
{"target gene":"Ptp99A","DRSC id":"DRSC14319","firefly reporter light, replicate 1":5802,"Renilla control light, replicate 1":2560}
{"target gene":"Ptp99A","DRSC id":"DRSC14320","firefly reporter light, replicate 1":13004,"Renilla control light, replicate 1":3165}
{"target gene":"Ptp99A","DRSC id":"DRSC16803","firefly reporter light, replicate 1":6742,"Renilla control light, replicate 1":2572}
{"target gene":"Ptp99A","DRSC id":"DRSC22125","firefly reporter light, replicate 1":8.16e5,"firefly reporter light, replicate 2":7.85e5,"Renilla control light, replicate 1":3.67e5,"Renilla control light, replicate 2":3.83e5}
{"target gene":"Ptp99A","DRSC id":"DRSC22477","firefly reporter light, replicate 1":4.64e5,"firefly reporter light, replicate 2":4.28e5,"Renilla control light, replicate 1":1.79e5,"Renilla control light, replicate 2":1.52e5}
{"target gene":"CG30183","DRSC id":"DRSC04450","firefly reporter light, replicate 1":1808,"firefly reporter light, replicate 2":6795,"Renilla control light, replicate 1":720,"Renilla control light, replicate 2":2349}
{"target gene":"CG30183","DRSC id":"DRSC04472","firefly reporter light, replicate 1":2810,"firefly reporter light, replicate 2":10305,"Renilla control light, replicate 1":656,"Renilla control light, replicate 2":2864}
{"target gene":"CG32219","DRSC id":"DRSC09641","firefly reporter light, replicate 1":3866,"Renilla control light, replicate 1":1435}
{"target gene":"ms(3)76Ba","DRSC id":"DRSC10091","firefly reporter light, replicate 1":9015,"Renilla control light, replicate 1":3101}
{"target gene":"Mpi","DRSC id":"DRSC16417","firefly reporter light, replicate 1":11896,"Renilla control light, replicate 1":3776}
{"target gene":"Hmg-2","DRSC id":"DRSC04554","firefly reporter light, replicate 1":6704,"Renilla control light, replicate 1":1699}
{"target gene":"prom","DRSC id":"DRSC04684","firefly reporter light, replicate 1":3184,"firefly reporter light, replicate 2":5114,"Renilla control light, replicate 1":692,"Renilla control light, replicate 2":1836}
{"target gene":"prom","DRSC id":"DRSC21463","firefly reporter light, replicate 1":5.69e5,"firefly reporter light, replicate 2":6.22e5,"Renilla control light, replicate 1":2.86e5,"Renilla control light, replicate 2":2.45e5}
{"target gene":"prom","DRSC id":"DRSC22088","firefly reporter light, replicate 1":6.39e5,"firefly reporter light, replicate 2":6.61e5,"Renilla control light, replicate 1":2.23e5,"Renilla control light, replicate 2":2.69e5}

Already shown: an excerpt of the list.
{"target gene":"CG4691","DRSC id":"DRSC01950","firefly reporter light, replicate 1":4388,"Renilla control light, replicate 1":1954}
{"target gene":"CG14441","DRSC id":"DRSC17934","firefly reporter light, replicate 1":22224,"Renilla control light, replicate 1":5158}
{"target gene":"SNRPG","DRSC id":"DRSC20207","firefly reporter light, replicate 1":21141,"Renilla control light, replicate 1":7344}
